Assay results reported in PubChem BioAssay AID504834 (National Center for Advancing Translational Sciences (NCATS), 2011).
Screen size: about 320,000 compounds; about 22,000 (6.9%) were called active. The shares of active, inactive and inconclusive entries below differ from those in the screen. The call rests on the fitted dose curve; in most records, active means well fitted inhibition curve with a large enough effect; inconclusive means small, poorly fitted or top-dose-only effect, or another doubt; inactive means no such curve, though single readings can be large or run the other way. Potencies of inconclusive entries are doubtful fits and often do not repeat.

Assay: Primary qHTS for delayed death inhibitors of the malarial parasite plastid, 96 hour incubation
Conditions: P. falciparum luciferase reporter growth; series mostly up to 28.7 µM
Method in brief: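 Compounds incubated with erythrocytes infected by luciferase-expressing P. falciparum (2% hematocrit, 0.05% parasitemia final) for 96 hours, 37 C in 5% CO2. Growth inhibition scored as decreased luciferase luminescence.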
Potency means the concentration at half of the fitted maximal effect.

SMILES | Potency
Cc1cc([N+](=O)[O-])cc(C)c1OCC(=O)N/N=C/c1ccc(OC(=O)c2ccccc2Br)cc1 | active: 10.4 µM
O=C(NCCc1ccccn1)C1CCCN1S(=O)(=O)c1ccc(Cl)cc1 (stereo not given) | inactive
Cc1noc(C)c1COc1ccccc1C(=O)NCc1ccccc1Cl | active: 5.22 µM
COCCN1CN=C(Nc2nc3ccccc3o2)NC1 | inactive
CC(C)Nc1nc(NC(C)C)nc(N(C)C(N)=O)n1 | active: 11.7 µM
Cc1ccc(S(=O)(=O)Nc2c(NC3CCCCC3)c3ccccc3oc2=O)c(C)c1 | inconclusive: 5.22 µM [inhibitor, partial curve]
CS(=O)(=O)N(CC(=O)NCCSCc1ccccc1)c1ccccc1Br | active: 7.38 µM
O=C(Cc1ccccc1)Nc1cc(C(=O)c2ccccc2)ccc1N1CCOCC1 | active: 5.22 µM
CCCCn1c(N)c(N(CC(C)C)C(=O)CSCc2cccc(C)c2)c(=O)[nH]c1=O | inconclusive: 16.5 µM [inhibitor, single point]
COc1cccc(CN2CCN(Cc3cccc4nonc34)CC2CCO)c1 (stereo not given) | inconclusive: 2.62 µM [inhibitor, partial curve, poor fit]
O=C(CCS(=O)(=O)c1ccccc1)OCc1ccc([N+](=O)[O-])cc1 | inactive
Cc1cccc(OCC(=O)N(Cc2ccco2)C2CCS(=O)(=O)C2)c1 (stereo not given) | inconclusive: 13.1 µM [inhibitor, partial curve, poor fit]
Cc1c(Cl)cccc1N=c1c([N+](=O)[O-])nn(-c2ccccc2)n1O | inconclusive: 2.33 µM [inhibitor, full curve]
Cc1ccccc1-n1ncc2c([N+](=O)[O-])cc([N+](=O)[O-])cc21 | inconclusive: 11.7 µM [inhibitor, partial curve]
CCn1ncc(C2=NOC(C(=O)Nc3ccccc3C(=O)OC)C2)c1C (stereo not given) | inconclusive: 0.0738 µM [inhibitor, full curve, poor fit]
CC(=O)N1CCN(Cc2nc3cc(NC(=O)c4cccc(Br)c4)ccc3n2C)CC1 | inactive
O=C1CCC/C1=c1\s/c(=C\c2cccnc2)c(=O)n1-c1ccccc1 | inconclusive: 0.522 µM [inhibitor, full curve, poor fit]
O=C(COC(=O)c1ccccc1NCCO)NNC(=O)c1cccs1 | inactive
CCOc1ccc(C(C)=O)cc1CN1C(=O)NC2(CCCCC2C)C1=O (stereo not given) | inconclusive: 18.5 µM [inhibitor, single point]
COc1ccc(CC(=O)N(Cc2ccccc2)c2ccc(C)cc2)cc1OC | inconclusive: 20.8 µM [inhibitor, partial curve, poor fit]
Cc1ccccc1C(=O)NC1CCN(Cc2nnnn2C2CCCC2)CC1 | active: 6.57 µM
O=C(Nc1cccc(-c2nc3ccccc3c(=O)o2)c1)c1ccccc1 | inconclusive: 5.22 µM [inhibitor, partial curve]
CCCOC(=O)c1ccc(NC(=O)C(=O)NCCN(CC)CC)cc1 | inactive
CCN(C(=O)COC(=O)CNC(=O)c1sc2ccccc2c1Cl)C1CCCCC1 | inactive

Structural class, the entries above containing an aryl methoxy group
SMILES | Potency
COc1cccc(CN2CCN(Cc3cccc4nonc34)CC2CCO)c1 (stereo not given) | inconclusive: 2.62 µM [inhibitor, partial curve, poor fit]
COc1ccc(CC(=O)N(Cc2ccccc2)c2ccc(C)cc2)cc1OC | inconclusive: 20.8 µM [inhibitor, partial curve, poor fit]

Carrying on:

SMILES | Potency
O=c1c2c3c(sc2n(CCN2CCCC2)c(=O)n1Cc1ccccc1)CCCCC3 | inconclusive: 18.5 µM [inhibitor, single point]
Cc1ccc(NC(=O)c2cc(S(=O)(=O)N3CCc4ccccc43)cn2C)cc1 | inconclusive: 7.38 µM [inhibitor, partial curve]
Cc1ccc(NC(=O)CCC(=O)NNC(=O)c2ccccc2)c(C)c1 | inactive
Cc1cccc(OCC(=O)N/N=C\c2cccn2C)c1C | inconclusive: 0.0415 µM [inhibitor, full curve, poor fit]
Cc1n[nH]c(C)c1S(=O)(=O)N1CCCC(C(=O)NCc2ccc(F)cc2)C1 (stereo not given) | inconclusive: 14.7 µM [inhibitor, single point]
COC(=O)c1c(NC(=O)c2ccccc2C(=O)O)sc2c1CCC2 | inactive
CCOC(=O)C(CC(C)C)CP(=O)(O)CNC(=O)OCc1ccccc1 (stereo not given) | active: 7.38 µM
CN(C)c1ccc(C(C(=O)NC2CCCC2)N(C(=O)c2csnn2)C2CC2)cc1 (stereo not given) | inactive
COc1ccccc1NC(=O)C/C(C)=N/NC(=O)COc1c(Br)cc(Br)cc1OC | inactive
CN1c2ccccc2C(=O)NC1c1ccc(Cl)cc1 (stereo not given) | inactive
C[n+]1ccccc1/C=N/O | inconclusive: 10.4 µM [inhibitor, single point]
COc1ccc(-c2ccoc2)cc1[C@H]1[C@H]2C=CC[C@@H](C)[C@@H]2C(=O)N1Cc1ccccc1 | inconclusive: 11.7 µM [inhibitor, single point]
O=S(=O)(NCC(c1cccnc1)N1CCOCC1)c1cccs1 (stereo not given) | inconclusive: 0.0465 µM [inhibitor, full curve, poor fit]
CCOC(=O)N1CCc2c(sc3ncn(Cc4ccc(F)cc4)c(=O)c23)C1 | active: 5.86 µM
O=S(=O)(CCOc1ccccc1)N1CCOCC1 | inconclusive: 13.1 µM [inhibitor, partial curve, poor fit]
Cc1ccc(Nc2ncnc(N)n2)cc1C | active: 4.15 µM
Cc1cccc(N2CCN(C(=O)c3cc(S(=O)(=O)N4CCCC4)cn3C)CC2)c1C | inconclusive: 0.037 µM [inhibitor, full curve, poor fit]
S=C(NCCc1ccccn1)Nc1ccccc1Cl | inactive
CCOC(=O)c1nnn(-c2nonc2N)c1CN1CCCC1 | active: 0.657 µM
CN(C(=O)COC(=O)c1c2c(nc3ccccc13)/C(=C/c1cccc([N+](=O)[O-])c1)CCC2)C1CCS(=O)(=O)C1 (stereo not given) | inconclusive: 8.28 µM [inhibitor, single point]
C/C(=N\NC(=O)c1cccc(S(=O)(=O)N2CCCC2)c1)c1ccc(F)cc1 | inconclusive: 0.0262 µM [inhibitor, full curve]
Cc1ccccc1NC(=O)NCc1ccc2c(c1)OCO2 | inconclusive: 4.15 µM [inhibitor, single point]
Cc1cc(NC(=O)CS(=O)(=O)Cc2ccccc2)no1 | inactive
COc1ccccc1CC(=O)Nc1ccc([N+](=O)[O-])cc1O | inactive

SMILES | Potency
CCOc1ccc2nc(SCC(=O)Nc3cc(C)on3)c(C)cc2c1 | inconclusive: 11.7 µM [inhibitor, partial curve, poor fit]
O=C(Oc1cc(=O)oc2c1c(=O)n1c3c(cccc23)CC1)c1ccccc1 | inconclusive: 16.5 µM [inhibitor, single point]
COc1cccc(N2C(=O)CC(NNc3nc4ccccc4s3)C2=O)c1 (stereo not given) | inactive
O=C1/C(=C/c2cccs2)Sc2ccccc21 | inconclusive: 10.4 µM [inhibitor, partial curve, poor fit]
CCN1C(=O)[C@H]2[C@@H](c3ccc(C)cc3)N3C(=O)N(c4cccc(Cl)c4)C(=O)[C@@]3(CC(C)C)[C@H]2C1=O | active: 8.28 µM
COc1cccc(-c2cc(C(=O)Nc3cc(OC)c(OC)c(OC)c3)no2)c1 | inconclusive: 0.329 µM [inhibitor, full curve]
COc1cccc(-c2nc(CS(=O)(=O)CC(=O)NC3CCCCCC3)c(C)o2)c1 | inactive
CCOC(=O)[C@H]1[C@H]2COc3cc(OC)ccc3[C@@H]2N2C(=O)CN(Cc3ccccc3)C(=O)[C@@]12C | inconclusive: 14.7 µM [inhibitor, single point]
CCN(CC)S(=O)(=O)c1ccc(C(=O)N2CCc3ccccc32)cc1 | inconclusive: 18.5 µM [inhibitor, single point]
C[C@@H]1NC(=O)[C@H](CCCN=C(N)N)NC(=O)c2cc([N+](=O)[O-])cc(I)c2NCCC[C@@H](C(N)=O)NC1=O | inactive
CC(CN1CCCC1)OC(=O)c1ccc(F)cc1 (stereo not given) | inconclusive: 1.31 µM [inhibitor, full curve, poor fit]
CC(=O)c1cccc(NS(=O)(=O)c2ccc3c(c2)oc(=O)n3C)c1 | inactive
CC(=O)Nc1ccc(S(=O)(=O)N(C)c2nc3ccccc3nc2Cl)cc1 | inactive
COc1cc(C(=O)NCC(=O)N/N=C/c2cccc(OC(=O)c3ccco3)c2)cc(OC)c1OC | inconclusive: 0.0033 µM [inhibitor, full curve, poor fit]
CCOc1ccc(Cn2nnc(C(=O)NCCc3ccccc3)c2N)cc1 | inconclusive: 18.5 µM [inhibitor, single point]
COc1ccc(OC)c(CCNC(=O)c2ccc(CS(=O)Cc3ccc(Cl)cc3)o2)c1 (stereo not given) | inconclusive: 9.28 µM [inhibitor, partial curve, poor fit]
CCOc1ccc(N2CCc3c(C)nc(SC)nc32)cc1 | inconclusive: 18.5 µM [inhibitor, single point]
O=C(OCCOc1cccc(Cl)c1)c1cc(S(=O)(=O)N2CCOCC2)ccc1F | inconclusive: 9.28 µM [inhibitor, single point]
COC(=O)C1=C(c2ccc(F)cc2OCc2ccccc2)C[C@@H]2CC[C@H]1N2C(=O)NCc1cccc(C(F)(F)F)c1 | inconclusive: 4.15 µM [inhibitor, partial curve]
O=C(NC1CC2CCCC(C1)N2Cc1ccccc1)c1cccc(F)c1 (stereo not given) | inconclusive: 18.5 µM [inhibitor, partial curve, poor fit]
O=C(O)C(Cc1cc2ccccc2[nH]1)N1C(=O)C2CC=C(Cl)CC2C1=O (stereo not given) | inconclusive: 0.329 µM [inhibitor, full curve, poor fit]
C=CCOC(=O)C1=C[C@@H](c2coc3ccccc3c2=O)[C@H](CCCO)[C@@H](OCC)O1 | inconclusive: 18.5 µM [inhibitor, single point]
